Experimental data from PubChem BioAssay AID1671190 (National Center for Advancing Translational Sciences (NCATS), 2021).
Several values for one entry are separate records, joined by “and”; a condition that tells them apart may be missing. Identical values can stand only once. Screen size: about 580,000 compounds; about 6,100 (1.1%) were called active. Inconclusive means that the source gave no clear call. Such entries were picked first, then a sample of the others. The call rests on the fitted dose curve; in most records, active means well fitted inhibition curve with a large enough effect; inconclusive means small, poorly fitted or top-dose-only effect, or another doubt; inactive means no such curve, though single readings can be large or run the other way. Potencies of inconclusive entries are doubtful fits and often do not repeat.

Chains of the proteins cited; added tags and fusions are not shown. Lines headed by an entry give the natural chain unless they say otherwise; changes in a name come on top.
UniProt P18054: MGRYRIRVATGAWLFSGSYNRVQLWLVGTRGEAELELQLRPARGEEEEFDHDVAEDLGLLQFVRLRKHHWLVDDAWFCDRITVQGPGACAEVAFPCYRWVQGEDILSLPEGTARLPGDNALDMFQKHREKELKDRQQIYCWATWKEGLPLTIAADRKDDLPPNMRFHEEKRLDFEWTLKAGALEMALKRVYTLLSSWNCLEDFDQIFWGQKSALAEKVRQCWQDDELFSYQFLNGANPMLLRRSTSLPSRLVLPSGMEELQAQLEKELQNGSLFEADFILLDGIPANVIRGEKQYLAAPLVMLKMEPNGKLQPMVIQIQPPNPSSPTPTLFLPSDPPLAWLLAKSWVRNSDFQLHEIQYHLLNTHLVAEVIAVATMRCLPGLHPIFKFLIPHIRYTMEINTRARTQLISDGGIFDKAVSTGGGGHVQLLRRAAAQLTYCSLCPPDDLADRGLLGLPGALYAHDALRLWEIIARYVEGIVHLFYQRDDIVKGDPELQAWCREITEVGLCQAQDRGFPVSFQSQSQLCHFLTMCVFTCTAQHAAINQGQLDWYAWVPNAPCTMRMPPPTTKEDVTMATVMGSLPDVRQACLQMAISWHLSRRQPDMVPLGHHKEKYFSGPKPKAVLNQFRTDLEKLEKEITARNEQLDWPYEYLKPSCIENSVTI

Molecular target: Polyunsaturated fatty acid lipoxygenase ALOX12 (Homo sapiens) (UniProt P18054)
Experiment: Primary qHTS assay for inhibitors of human arachidonate 12S-lipoxygenase (ALOX12): Round 2
Settings: purified 12hLO, xylenol orange hydroperoxide absorbance; activity change, negative = inhibition: at 108 µM (top of the series) unless noted
Method in brief: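 Purified human 12hLO at 150 nM in 25 mM Hepes, 0.01% Triton X-100, pH 7.0, preincubated 15 min at room temperature with compound. Reaction started with 40 uM arachidonic acid, 30 min at room temperature. Hydroperoxide measured by Fe-xylenol orange, 573/405 nm absorbance ratio.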
On the % scale 0 is the no-effect control and ±100 the full control effect; potency means the concentration at half of the fitted maximal effect.

Row | SMILES | Potency | activity change, negative = inhibition
1 | CCN(CC(=O)Nc1cccc(OC)c1)CC(=O)Nc1ccccc1C | inactive | –
2 | COc1ccccc1-c1nc(N)n[nH]1 | inactive | –
3 | COc1ccc(N(CC(=O)NN=C2CCCC2)S(=O)(=O)c2ccccc2)cc1 | inactive | –
4 | CN(C)c1ccc(C(=O)N2CC[C@@H](CC(=O)O)[C@@H](CCN3CCCCC3)C2)cc1 | inconclusive: 100 µM [inhibitor, partial curve, poor fit] | –
5 | COc1ccc(-c2n(CC(=O)OC3CC(C)CCC3C(C)C)c3ccccc3[n+]2C)cc1 (stereo unspecified) | inactive | –
6 | C/C=C/c1cccc(-c2nc(C(=O)NC3CCC3)cc3c2[C@@H](CCO)N(S(=O)C(C)(C)C)C3)c1 (stereo partly specified) | inconclusive: 44.7 µM [inhibitor, partial curve, poor fit] | –
7 | COc1ccc(C(=O)NC(=S)Nc2ccc(CN3CCOCC3)cc2)cc1OC | inactive | –
8 | O=S(=O)(Nc1ccc(Cl)cc1)c1ccc(N2CCOCC2)c(NC(=S)NCCN2CCOCC2)c1 | inconclusive: 31.6 µM [inhibitor, single point] | –
9 | COc1ccc(-c2csc(NC(=S)NC(=O)/C=C/c3ccco3)n2)cc1OC | inactive | –
10 | Fc1ccc(-n2c(-c3ccc4ccccc4n3)n[nH]c2=S)cc1 | inconclusive: 39.8 µM [inhibitor, partial curve, poor fit] | –
11 | CCCC(=O)Nc1ccc2c(c1)nc1n2CCN(CCOC)C1 | inconclusive: 44.7 µM [inhibitor, partial curve, poor fit] | –
12 | COc1ccc(C(CCN(Cc2ccc(OC)c(OC)c2)C(C)=O)C(C)C)cc1 (stereo unspecified) | inconclusive: 0.112 µM [inhibitor, full curve, poor fit] | –
13 | CC(=O)NCCNc1ncnc2ccc(-c3ccccc3C)cc12 | inactive | –
14 | COCCn1nnnc1C(c1ccc(OC)cc1OC)N1CCN(c2ccccc2F)CC1 (stereo unspecified) | active: 39.8 µM | –
15 | CN(C)CCCNCCc1ccccc1 | inconclusive: 35.5 µM [inhibitor, partial curve, poor fit] | –
16 | COCCn1cnc2c1c(=O)n(CC(=O)Nc1ccccc1)c(=O)n2Cc1ccccc1 | inconclusive: 0.316 µM [inhibitor, full curve, poor fit] | –
17 | COc1ccc(-c2cccc(-c3cc(=O)oc4ccc(C(C)(C)C)cc34)c2)cc1 | inconclusive: 126 µM [inhibitor, single point] | –
18 | CC(NC(=O)c1[nH]c2ccc(F)cc2c1Cl)c1cccc(F)c1 (stereo unspecified) | inactive | –
19 | CCN(CC)S(=O)(=O)c1ccc(NC(=O)C(C)N(c2cccc(Cl)c2)S(C)(=O)=O)cc1 (stereo unspecified) | inconclusive: 56.2 µM [inhibitor, partial curve, poor fit] | –
20 | O=C(NCCc1nnc2n1CCN(Cc1ccsc1)CC2)c1ccc(F)cc1 | inactive | –
21 | CN(C)CCNc1oc(-c2cccs2)nc1C#N | inconclusive: 39.8 µM [inhibitor, partial curve, poor fit] | –
22 | CCCCCCCCN1C(=O)[C@H](CC(=O)NCC23CC4CC(CC(C4)C2)C3)C[C@@]2(C(=O)OCC)CCC=C12 | inconclusive: 39.8 µM [inhibitor, partial curve, poor fit] | –

Row | SMILES | Potency | activity change, negative = inhibition
23 | N#Cc1ccc(CNc2cccc(Br)c2)c(F)c1 | inconclusive: 39.8 µM [inhibitor, partial curve, poor fit] | –
24 | Cc1ccc2c(c1)c(=O)c1ccccc1n2CCCC(=O)Nc1ccc(Cl)c(Cl)c1 | inconclusive: 50.1 µM [inhibitor, single point] | –
25 | CC1CC2C3CCC4=CC(=O)C=CC4(C)[C@@]3(Cl)C(O)CC2(C)C1(O)C(=O)CO (stereo partly specified) | inactive | –
26 | CCOC(=O)c1ccc(N(CCC2CO2)S(=O)(=O)c2ccc(C)cc2)cc1 (stereo unspecified) | inconclusive: 141 µM [inhibitor, partial curve, poor fit] | –
27 | Cc1cccc(NC(=O)C2Cc3ccc(C)cc3S2)c1 (stereo unspecified) | inconclusive: 44.7 µM [inhibitor, partial curve, poor fit] | –
28 | CCc1ccc(NC(=O)Cc2c(C)nc3nc(-c4cccs4)nn3c2C)cc1 | inconclusive: 79.4 µM [inhibitor, partial curve, poor fit] | –
29 | O=C1NC(=S)S/C1=C\c1cccc([N+](=O)[O-])c1 | inactive | –
30 | CC1CCN(CCOc2cccc(Br)c2)CC1 | inactive | –
31 | O=c1c2ccsc2ncn1Cc1coc(-c2ccccc2Cl)n1 | inconclusive: 0.398 µM [inhibitor, full curve, poor fit] | –
32 | Cc1cccc(C(=O)n2nc(NCc3cccs3)nc2NCc2cccs2)c1 | inconclusive: 10 µM [inhibitor, partial curve, poor fit] | –
33 | CC(C)Cn1nc(C(=O)OCC(=O)Nc2ccccc2F)c2ccccc2c1=O | inactive | –
34 | O=C(/C=C/c1cccc(C(F)(F)F)c1)Nc1ccc(F)c(F)c1F | inactive | –
35 | CC(=O)c1cccc(NC(=O)C2CCCN(S(=O)(=O)c3cccc4nonc34)C2)c1 (stereo unspecified) | inconclusive: 50.1 µM [inhibitor, partial curve, poor fit] | –
36 | CN(C)c1ccc(C(=C2C=CC(=[N+](C)C)C=C2)c2ccc(N(C)C)cc2)cc1 | inconclusive: 9.07 µM [inhibitor, partial curve] and inconclusive: 38.5 µM [inhibitor, partial curve] | –
37 | NS(=O)(=O)c1ccc(CCNC(=O)Nc2ccc(Cl)c(Cl)c2)cc1 | inconclusive: 89.1 µM [inhibitor, single point] | –
38 | CCN1CCN(CCOc2ccc3c(=O)c(-c4ccc(Br)cc4)c(C)oc3c2)CC1 | inconclusive: 6.31 µM [inhibitor, full curve, poor fit] | –
39 | O=C(COc1ccccc1Cl)NC(=S)Nc1ccccc1N1CCCC1 | inconclusive: 79.4 µM [inhibitor, partial curve, poor fit] | –
40 | CCCCC(=O)NC(c1ccco1)c1cc(Cl)c2cccnc2c1O (stereo unspecified) | inconclusive: 3.16 µM [inhibitor, full curve] | –
41 | N#CC1=C(N)OC2=C(C(=O)CC(c3ccccc3)C2)C1c1cccc(F)c1 (stereo unspecified) | active: 35.5 µM | –
42 | CC(=O)c1c(C(C)=O)c(C)n(NC(=O)c2ccccc2Cl)c1C | inactive | –
43 | CSc1nc(C)c2cc(C)oc2n1 | inactive | –
44 | CC(C)OCCCn1c(-c2ccc(Br)cc2)c[nH]c1=S | active: 44.7 µM | –

Row | SMILES | Potency | activity change, negative = inhibition
45 | Cc1ccc(-c2ccccc2CN)c(C)c1 | – | inactive: 8.4% [at 12.5 µM]
46 | CC1=Nc2cc(C(=O)NCCCN(C)C)ccc2Sc2ccc(F)cc21 | inconclusive: 25.1 µM [inhibitor, full curve, poor fit] | –
47 | CCCCNC(=O)Nc1ccc2c(c1)N(C)C(=O)c1ccccc1S2 | inconclusive: 89.1 µM [inhibitor, partial curve, poor fit] | –
48 | CCN(CC)S(=O)(=O)c1cc([N+](=O)[O-])ccc1NNC(=O)Nc1ccc(Cl)c(Cl)c1 | inconclusive: 3.98 µM [inhibitor, full curve, poor fit] | –
49 | Cc1cc2oc(=O)cc(CN3CCc4cc(S(N)(=O)=O)ccc43)c2cc1C | inconclusive: 44.7 µM [inhibitor, partial curve, poor fit] | –
50 | O=C(Nc1c(-c2ccc3c(c2)OCO3)[nH][nH]c1=O)c1cccc(C(F)(F)F)c1 | inconclusive: 3.16 µM [inhibitor, full curve, poor fit] | –
51 | COc1ccc(N=Cc2[nH]c3ccccc3c2O)cc1 | inconclusive: 44.7 µM [inhibitor, partial curve] | –
52 | COc1ccc(/C=N/Nc2cc(C)nc3ccc(OC)cc23)c(OC)c1 | inconclusive: 100 µM [inhibitor, single point] | –
53 | CCOC(=O)N1CCN(CC(=O)Nc2nnc(C(F)(F)F)s2)CC1 | inconclusive: 35.5 µM [inhibitor, single point] | –
54 | Cc1ccc(N2CN(CCC3=CCCCC3)CNC2=S)cc1 | inconclusive: 44.7 µM [inhibitor, single point] | –
55 | O=[N+]([O-])c1ncccc1OCc1ccc(Cl)c(Cl)c1 | inconclusive: 112 µM [inhibitor, single point] | –
56 | CN1C(=O)[C@H]2[C@@H](c3ccc(C(F)(F)F)cc3)N[C@]3(CCCN(CC4CCCCC4)C3=O)[C@H]2C1=O | inconclusive: 6.31 µM [inhibitor, full curve, poor fit] | –
57 | O=C(CN1CCCCC1)Nc1ccc(C(F)(F)F)cc1Cl | inconclusive: 112 µM [inhibitor, single point] | –
58 | CCCCc1c(Cc2ccccc2)ncn1CCc1ccccc1OC | inconclusive: 79.4 µM [inhibitor, partial curve, poor fit] | –
59 | CCNC(=O)N1CCCC1c1noc(CCC(=O)NC(CC)CC)n1 (stereo unspecified) | inactive | –
60 | COc1ccc(NC(=O)Cn2nnc(C(=O)NCc3ccco3)c2N)c(OC)c1 | inconclusive: 126 µM [inhibitor, partial curve, poor fit] | –
61 | O=[N+]([O-])c1ccc(O)c(CN2CCCCCC2)c1 | inactive | –
62 | COc1ccc(N2C(=O)CCS2(=O)=O)cc1S(=O)(=O)N1CCC2(CC1)OCCO2 | inactive | –
63 | CCOC(=O)c1ccc(-c2ccc3c(=O)c4ccccc4n(C)c3c2)cc1F | inactive | –
64 | O=C(/C=C/c1cnc2ccccc2n1)NC12CC3CC(CC(C3)C1)C2 | inactive and inconclusive: 50.1 µM [inhibitor, partial curve, poor fit] | –
65 | CCOC(=O)c1ccc(NC2Nc3cc(C)nn3S2)cc1 (stereo unspecified) | inconclusive: 5.62 µM [inhibitor, full curve, poor fit] | –
66 | O=C(NC1CCCCC1)O[C@@H]1CO[C@H]2[C@@H]1OC[C@@H]2NC(=O)c1ccccc1 | inconclusive: 112 µM [inhibitor, partial curve, poor fit] | –
